Consider five molecules from PubChem BioAssay (Tox21).

Where “and” joins values, the source holds several entries; their conditions need not be identical. Identical values can stand only once. The hits were mostly taken out for another list; the other results follow. Records with an inconclusive call do not appear. Calls of active or inactive are those of the source. Calls come from the whole dose curve; as a rule, active = well fitted cell-killing curve with a large enough effect in the repeat runs; inconclusive = weak or mixed curves, or effect the other way; inactive = flat fitted curve, though single readings scatter.

The nature of assay [1]: cAMP Responsive Elements (CRE) small molecule antagonists, cell-based qHTS assay: qHTS cell viability counter screen (AID 2060913). Note: nearly all actives have a fitted effect of over 40% in size. The following applies: CRE-bla HEK293T viability, CellTiter-Glo luminescence, 5 h; at 92.4 µM (top of the series). Put shortly:
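Cytotoxicity read in the same wells as the CRE-bla HEK293T antagonist assay: after 3 h compound with 0.25 uM NKH477 final and 2 h beta-lactamase substrate, CellTiter-Glo luminescence measured.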

The nature of assay [2]: cAMP Responsive Elements (CRE) small molecule agonists, cell-based qHTS assay: qHTS cell viability counter screen (AID 2060914).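 Note: viability read after 3 h of compound exposure; nearly all actives have a fitted effect of over 50% in size.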 The following applies: CRE-bla HEK293T viability, CellTiter-Glo luminescence, 5 h; at 92.4 µM (top of the series). An excerpt:
National Center for Advancing Translational Sciences [NCATS]
Division of Preclinical Innovation [DPI]
U.S. Environmental Protection Agency [EPA]
National Institutes of Environmental Health Sciences [NIEHS]
National Toxicology Program [NTP]
U.S. Food and Drug Administration [FDA]
CREB (cyclic-AMP Responsive Element Binding Protein) is a cellular transcription factor. It binds to certain DNA sequences called cAMP Responsive Elements (CRE) and regulates the transcription of the genes. […] This cell line can be used to find agonists/antagonists of the cyclic AMP signaling pathway. The activation of the report gene under culture conditions can be detected by fluorescence intensity. This cell line has been used to screen the Tox21 10K compound library to identify agonists that induce oxidative stress. The cytotoxicity of the Tox21 compound library against the CRE-bla cell line was tested in parallel by measuring the cell viability using CellTiter-Glo assay (Promega, Madison, WI) in the same wells.
Tox21 Assay Protocol Summary:
CRE-bla Hek 293T cells were suspended in assay medium (DMEM containing 10% dialyzed FBS, 0.1 mM NEAA, 1 mM sodium pyruvate and 25 mM HEPES) and dispensed at 2,000 cells/5 uL /well into 1536-well black wall/clear bottom plates using a Multidrop Combi (ThermoFisher Scientific, Waltham, MA) dispenser. After the assay plates were incubated at 37 C/5% CO2 for 18 hrs, 23 nL of compounds dissolved in DMSO, positive controls or DMSO only was transferred to the assay plate by a pintool workstation (Kalypsys, San Diego, CA). After the plates were incubated at 37 C/5% CO2 for 3 hrs, 1 uL of LiveBLAzer B/G FRET substrate (Invitrogen, Carlsbad, CA) was added to each well using Bioraptr Flying Reagent Dispenser (FRD, Aurora Discovery, San Diego, CA). The plates were incubated at room temperature for 2 h, then fluorescence intensities were measured using an Envision plate reader (PerkinElmer, Shelton, CT) at Excitation 405nm, Emission 460nm and 530nm. The % activity was determined from the ratio of 460nm/530nm. For cell viability readout that measures cytotoxicity, 4 uL /well of CellTiter-Glo reagent was added into the assay plates using Bioraptr FRD. After 30 min incubation at room temperature, the luminescence intensity in the assay plates was measured using a ViewLux (PerkinElmer, Shelton, CT) plate reader.
% is set by controls: 0 for no effect and ±100 for the full control effect.

For the molecule `COc1ccc2ccccc2c1`, in assay [1], the viability change, negative = cytotoxic is inactive: -5.65%. Besides, in assay [2], the activity change, negative = cytotoxicity was inactive: -10.2%.

Consider `CCCCCCCC1CCC(=O)O1` (stereo not given), for which, in assay [1], the viability change, negative = cytotoxic is inactive: 1.48%. Moreover, in assay [2], the activity change, negative = cytotoxicity is inactive: 6.63%.

For `CS(=O)(=O)c1ccc([C@@H](CC2CCCC2)C(=O)Nc2cnccn2)cc1Cl`, the viability change, negative = cytotoxic in assay [1] is inactive: -13.9%. Besides, the activity change, negative = cytotoxicity in assay [2] was inactive: -4.17%.

On to `CC(=O)N(C)C`, for which the viability change, negative = cytotoxic in assay [1] was inactive: 0.574% and inactive: -8.9%. The activity change, negative = cytotoxicity in assay [2] was inactive: 1.57% and inactive: 0.419%.

Take `O=C1Cc2ccccc2C1`: the viability change, negative = cytotoxic in assay [1] was inactive: 21.4%. Further, in assay [2], the activity change, negative = cytotoxicity is inactive: -7.4%.
